The experiment concerns the target T1, GST-fused GF14c protein (full-length GF14c, residues 1 to 256) (rice) (UniProt Q6ZKC0).
T1 sequence: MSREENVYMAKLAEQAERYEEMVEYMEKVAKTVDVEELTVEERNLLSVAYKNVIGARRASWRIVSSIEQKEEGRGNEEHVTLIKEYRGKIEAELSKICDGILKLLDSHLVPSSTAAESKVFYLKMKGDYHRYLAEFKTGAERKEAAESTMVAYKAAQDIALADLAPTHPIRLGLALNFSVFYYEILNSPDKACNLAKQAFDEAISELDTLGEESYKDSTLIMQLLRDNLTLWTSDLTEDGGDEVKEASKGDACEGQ
In words: in vitro GST pull-down, GST-GF14c on glutathione resin, SDS-PAGE.

No constants are given. Whether binding was seen depends on the method and setting. Binding seen in cells or lysates may run through a third protein. Some entries that bind do so weakly or less than the wild type. Where a sequence is shown, tags or fusion partners need not be part of it.

For one molecule, binding results are on record in patent US20130019345A1 (NATIONAL UNIVERSITY CORPORATION NARA INSTITUTE OF SCIENCE …, published 2013).

Take ARVNNLETEVEQLKQENKMLRVKYEQLRKTVEVPVPVRRTLQRVLEAPF (other): the binding entry was “binds”.
